# Measurements: PubChem BioAssay (NCATS)
# “And” between values parts separate entries of the source, which are not always exact repeats. Equal values may be shown once. Some of the results follow. Further columns of the screen follow, without active or inactive calls. The list favours compounds with an active or inconclusive main result. The note in brackets gives the kind of curve behind each potency; many fits are weak.
# Assay: NCATS anti-infectives library activity on the primary C. elegans qHTS viability assay (AID 1745855)
# Conditions: C. elegans worm area imaging, day 7, measured here: worm number
# Description: Assay Development and Screening Technology Laboratory (ADST)
# National Center for Advancing Translational Sciences (NCATS), Rockville, MD
# National Institute of Health (NIH), Bethesda, Maryland
# Caenorhabditis elegans has helped elucidate the evolutionarily conserved genetics underlying pathways and cellular processes implicated in human disease and may be ideally positioned to reveal novel pharmacological properties of exiting drugs. The organism's short life cycle and microscopic size is applicable to the technical requirements of high-throughput screening. Here a quantitative high-throughput screening (qHTS)-based forward chemical biology platform has been developed using C. elegans. 384-well microtiter plate laser scanning cytometry was used in the rapid detection and quantification of the fluorescent protein-encoded phenotype to score worm viability. In a proof-of-concept study, the pharmacological qHTS profile obtained from a library of 643 anti-infective compounds.
# 1. Inglese, J., Auld, D. S., Jadhav, A., Johnson, R. L., Simeonov, A., Yasgar, A., Zheng, W., and Austin, C. P. (2006) Quantitative high-throughput screening: A titration-based approach that efficiently identifies biological activities in large chemical libraries, P Natl Acad Sci USA 103, 11473-11478.
# 2. Auld, D. S., Johnson, R. L., Zhang, Y. Q., Veith, H., Jadhav, A., Yasgar, A., Simeonov, A., Zheng, W., Martinez, E. D., Westwick, J. K., Austin, C. P., and Inglese, J. (2006) Fluorescent protein-based cellular assays analyzed by laser-scanning microplate cytometry in 1536-well plate format, Method Enzymol 414, 566-589.
# 3. Zuck, P., Lao, Z., Skwish, S., Glickman, J. F., Yang, K., Burbaum, J., and Inglese, J. (1999) Ligand-receptor binding measured by laser-scanning imaging, Proc Natl Acad Sci U S A 96, 11122-11127.
# PROTOCOL TABLE (as described by Inglese J, Shamu CE and Guy RK. 2007)
# SEQUENCE No. (e.g., 1, 2, 3, etc.); […] (e.g., C. elegans, Compounds, Incubation, Read, etc.); VALUE and DESCRIPTION.
# 1. C. elegans. Mixed population of OP50 E. coli fed PE254-GFP-FLuc C. elegans collected, bleached, and axenized eggs hatched overnight at 21 °C with 65 RPM shaking in M9 buffer.
# 2. Compounds. Library compounds, levamisole toxicity control and DMSO vehicle control added at 250 nL per well to 21 assay ready 384-well Greiner uClear plates and two DMSO control plates, transferred by Echo acoustic dispenser.
# 3. Media. Add 30 uL per well strained TOP10 E. coli capsules diluted to OD600 = 0.85 in S medium to 23 assay ready 384-well Greiner uClear plates.
# 4. C. elegans. Add 10 synchronized L1 worms per 30 uL per well to 23 assay ready 384-well Greiner uClear plates with bacterial capsules and compounds.
# (§1) 5. Detector. Worm GFP fluorescence measured on an Acumen eX3 laser cytometer within 2 hr of plating with settings as follows: Scan 1: Ex laser 488 nm; Detection Channel: Green, Voltage = 400, Sensitivity = 2, Trigger; Default reader settings; Data gated on perimeter, area, and peak intensity of detected objects.
# 6. Incubation. C. elegans grown in 384-well plates with bacterial capsules and compounds at 21 °C with 65 RPM shaking for 7 days.
# as §1, with “7.” for “5.”, “C. elegans” for “Worm”, “at day 0, 3 and day 7” for “within 2 hr of plating”, “the following settings:” for “settings as follows:”
# NOTES (numbers refer to Sequence numbers above; values are from representative experiments)
# 1. Mixed population of PE254-GFP-FLuc C. elegans (P#18) grown for three days on twelve 10 cm NGM plates with OP50 E. coli. Worms collected from freshly starved plates with 4 ml 1X S basal buffer per plate into 15 ml tubes. Each plate rinsed with an additional 2 ml buffer and rinse added to 15 ml tubes. Worms allowed to settle at ambient temp for 10 min, buffer removed as waste and worms washed 3x with 5 ml buffer per tube. […]
row,Compound,AC50
1,Cc1oc(=O)oc1CN1CCN(c2cc3c(cc2F)c(=O)c(C(=O)O)c2n3C(C)S2)CC1 (stereo not given),"20.5 µM [falling, partial curve, poor fit]"
2,N[C@H]1CONC1=O,"0.501 µM [falling, full curve, poor fit]"
3,O=C(/C=C/c1ccccc1)NC(NC(=S)Nc1cccc2cccnc12)C(Cl)(Cl)Cl (stereo not given),"4.59 µM [falling, full curve, poor fit]"
4,CCCN1CCC=C(c2cc(-c3ccc(C)cc3)no2)C1,"5.15 µM [falling, partial curve]"
5,COc1c(C)c2c(c(O)c1C/C=C(\C)CCC(=O)OCCN1CCOCC1)C(=O)OC2,"4.59 µM [falling, partial curve, poor fit]"
6,CC(C)C[C@H](NC(=O)CNC(=O)c1cc(Cl)ccc1Cl)B1OC(=O)C(CC(=O)O)(CC(=O)O)O1,"0.916 µM [falling, full curve]"
7,Cc1nc(Nc2ncc(C(=O)Nc3c(C)cccc3Cl)s2)cc(N2CCN(CCO)CC2)n1,"0.365 µM [falling, partial curve, poor fit]"
8,CC(=O)Nc1cccc(-n2c(=O)n(C3CC3)c(=O)c3c(Nc4ccc(I)cc4F)n(C)c(=O)c(C)c32)c1,"0.459 µM [falling, full curve, poor fit]"
9,Cc1cnc(-c2ccccc2C(C)C)nc1NCc1ccc(-n2ccnn2)cc1,"29 µM [falling, single point]"
10,COc1ccc2c(c1)[C@@H]1C[C@]1(C(=O)N1[C@@H]3CC[C@H]1CN(C)C3)Cn1c-2c(C2CCCCC2)c2ccc(C(=O)NS(=O)(=O)N(C)C)cc21,"20.5 µM [falling, partial curve]"
11,CN[C@H](CC(C)C)C(=O)N[C@H]1C(=O)N[C@@H](CC(N)=O)C(=O)N[C@H]2C(=O)N[C@H]3C(=O)N[C@H](C(=O)N[C@H](C(=O)O)c4cc(O)cc(O)c4-c4cc3ccc4O)[C@H](O[C@H]3C[C@](C)(N)[C@@H](O)[C@H](C)O3)c3ccc(c(Cl)c3)Oc3cc2cc(c3O[C@@H]2O[C@H](CO)[C@@H](O)[C@H](O)[C@H]2O[C@H]2C[C@](C)(NCc3ccc(-c4ccc(Cl)cc4)cc3)[C@@H](O)[C@H](C)O2)Oc2ccc(cc2Cl)[C@H]1O,"7.27 µM [falling, partial curve, poor fit]"
12,O=C1c2c(O)ccc(O)c2C(=O)c2c(NCCNCCO)ccc(NCCNCCO)c21,"11.5 µM [falling, partial curve, poor fit]"
13,CNc1ncnc2c1ncn2[C@@H]1O[C@H](CO)[C@@H](O)[C@H]1O,"6.48 µM [falling, partial curve, poor fit]"

# Same assay, conditions: C. elegans worm area imaging, day 7; measured here: worm area, day 3
row,Compound,AC50
1,O=C(NCc1ccco1)c1ccc2c(c1)N(Cc1c(F)cccc1Cl)C(=O)CS2,"25.8 µM [falling, single point]"
2,CCCN1CCC=C(c2cc(-c3ccc(C)cc3)no2)C1,"8.16 µM [falling, partial curve, poor fit]"
3,CC(C)C[C@H](NC(=O)CNC(=O)c1cc(Cl)ccc1Cl)B1OC(=O)C(CC(=O)O)(CC(=O)O)O1,"0.728 µM [falling, full curve]"
4,CCCCCN(C)CCC(O)(P(=O)(O)O)P(=O)(O)O,"4.09 µM [rising, single point]"
5,COc1ccc(-c2nc(N3CCOCC3)c3sc(CN(C)c4ncc(C(=O)NO)cn4)cc3n2)cn1,"0.459 µM [falling, full curve, poor fit]"
6,Cc1nc(Nc2ncc(C(=O)Nc3c(C)cccc3Cl)s2)cc(N2CCN(CCO)CC2)n1,"0.0058 µM [falling, full curve, poor fit]"
7,CC(=O)Nc1cccc(-n2c(=O)n(C3CC3)c(=O)c3c(Nc4ccc(I)cc4F)n(C)c(=O)c(C)c32)c1,"3.25 µM [falling, partial curve, poor fit]"
8,COc1ccc2cc(CCC(C)=O)ccc2c1,"8.16 µM [falling, partial curve, poor fit]"
9,CC(C)(C)OC(=O)Nc1ccc(-c2cc(C(=O)NCCCCCCC(=O)NO)no2)cc1,"25.8 µM [falling, single point]"
10,COc1ccc2c(c1)[C@@H]1C[C@]1(C(=O)N1[C@@H]3CC[C@H]1CN(C)C3)Cn1c-2c(C2CCCCC2)c2ccc(C(=O)NS(=O)(=O)N(C)C)cc21,"25.8 µM [falling, partial curve, poor fit]"
11,Fc1ccc(CNc2ncnc3ccc(F)cc23)cc1,"0.578 µM [falling, full curve]"
12,CC(C)c1cc(C(=O)N2CC[C@@H](NC(=O)C3CC3)C2)n[nH]1,"29 µM [falling, single point]"

# Same assay, conditions: C. elegans worm area imaging, day 7; measured here: worm number, day 3
row,Compound,AC50
1,O=C(NCc1ccco1)c1ccc2c(c1)N(Cc1c(F)cccc1Cl)C(=O)CS2,"0.115 µM [falling, full curve, poor fit]"
2,Cc1oc(=O)oc1CN1CCN(c2cc3c(cc2F)c(=O)c(C(=O)O)c2n3C(C)S2)CC1 (stereo not given),"7.27 µM [rising, partial curve, poor fit]"
3,C[C@H]1CC[C@@]2(O)C(C)(C)[C@@H]3CC[C@@]2(C)[C@H]1C3,"0.409 µM [falling, full curve, poor fit]"
4,O=C(/C=C/c1ccccc1)NC(NC(=S)Nc1cccc2cccnc12)C(Cl)(Cl)Cl (stereo not given),"29 µM [falling, single point]"
5,CCCN1CCC=C(c2cc(-c3ccc(C)cc3)no2)C1,"4.09 µM [falling, partial curve, poor fit]"
6,COc1c(C)c2c(c(O)c1C/C=C(\C)CCC(=O)OCCN1CCOCC1)C(=O)OC2,"10.3 µM [falling, partial curve, poor fit]"
7,CC(C)C[C@H](NC(=O)CNC(=O)c1cc(Cl)ccc1Cl)B1OC(=O)C(CC(=O)O)(CC(=O)O)O1,"1.29 µM [falling, full curve, poor fit]"
8,Cc1nc(Nc2ncc(C(=O)Nc3c(C)cccc3Cl)s2)cc(N2CCN(CCO)CC2)n1,"0.916 µM [falling, partial curve, poor fit]"
9,CC(=O)Nc1cccc(-n2c(=O)n(C3CC3)c(=O)c3c(Nc4ccc(I)cc4F)n(C)c(=O)c(C)c32)c1,"0.0816 µM [falling, full curve, poor fit]"
10,O=C(O)C[C@H](O)C[C@H](O)/C=C/c1c(C2CC2)nc2ccccc2c1-c1ccc(F)cc1,"10.3 µM [falling, partial curve, poor fit]"
11,Cc1cnc(-c2ccccc2C(C)C)nc1NCc1ccc(-n2ccnn2)cc1,"25.8 µM [falling, single point]"
12,N=C(N)c1ccc2cc(OC(=O)c3ccc(N=C(N)N)cc3)ccc2c1,"290 nM [rising, full curve, poor fit] and 23 µM [falling, single point]"
13,Fc1ccc(CNc2ncnc3ccc(F)cc23)cc1,"9.16 µM [falling, partial curve, poor fit]"
14,O=C1c2c(O)ccc(O)c2C(=O)c2c(NCCNCCO)ccc(NCCNCCO)c21,"14.5 µM [falling, partial curve, poor fit]"
15,CC(C)c1cc(C(=O)N2CC[C@@H](NC(=O)C3CC3)C2)n[nH]1,"16.3 µM [falling, partial curve, poor fit]"
